{
  "sequences": {"note": "Sequences of proteins named here, by UniProt entry; tags and fusion partners are left off. A change or cut given only in a name is not applied to a line headed by its entry.", "UniProt Q9UNA4": "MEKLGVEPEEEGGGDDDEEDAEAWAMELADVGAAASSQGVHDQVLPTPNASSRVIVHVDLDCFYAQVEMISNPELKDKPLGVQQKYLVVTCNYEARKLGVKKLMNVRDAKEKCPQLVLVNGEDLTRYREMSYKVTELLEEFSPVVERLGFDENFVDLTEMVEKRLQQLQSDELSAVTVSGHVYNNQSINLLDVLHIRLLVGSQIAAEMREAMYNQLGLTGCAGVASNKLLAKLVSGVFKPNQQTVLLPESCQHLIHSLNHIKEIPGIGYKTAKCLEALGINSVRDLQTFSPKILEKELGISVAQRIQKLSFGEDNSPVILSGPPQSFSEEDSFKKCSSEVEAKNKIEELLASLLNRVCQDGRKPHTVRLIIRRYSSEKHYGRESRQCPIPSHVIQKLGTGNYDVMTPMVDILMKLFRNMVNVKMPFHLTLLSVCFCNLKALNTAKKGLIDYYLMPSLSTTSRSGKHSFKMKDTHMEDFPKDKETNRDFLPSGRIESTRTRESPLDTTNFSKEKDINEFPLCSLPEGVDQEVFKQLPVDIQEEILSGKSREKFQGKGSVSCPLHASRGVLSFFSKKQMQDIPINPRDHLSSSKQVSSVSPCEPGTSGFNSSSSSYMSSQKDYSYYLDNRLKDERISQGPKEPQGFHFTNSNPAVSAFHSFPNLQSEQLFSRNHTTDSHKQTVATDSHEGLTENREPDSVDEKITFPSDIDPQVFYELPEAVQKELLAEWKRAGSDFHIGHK"},
  "source": "PubChem BioAssay AID588590",
  "about": "(National Center for Advancing Translational Sciences (NCATS), 2011)",
  "note": "The hits were mostly taken out for another list; the other results follow. Inconclusive results are not listed. Active and inactive are the calls of the source. Calls come from the whole dose curve; as a rule, active = well fitted inhibition curve with a large enough effect; inconclusive = small, poorly fitted or top-dose-only effect, or another doubt; inactive = no such curve, though single readings can be large or run the other way.",
  "data": [
    {"target": "DNA polymerase iota (Homo sapiens) (UniProt Q9UNA4)", "assay": "qHTS for Inhibitors of Polymerase Iota", "conditions": "Pol iota fluorescent replication assay, 10 min; at 115 µM (top of the series)", "text": "DNA polymerases, such as Pol iota, are specifically involved in DNA repair. Pol iota specifically plays an important role in translesion synthesis, where the normal high-fidelity DNA polymerases cannot proceed and DNA synthesis stalls. […] Thus, while pol eta's (and most likely iota's) normal function is to protect humans against the deleterious consequences of DNA damage, under certain conditions they can have deleterious effects on human health. As a consequence, we propose to utilize a high throughput replication assay to identify small molecule inhibitors of pol iota.\nIn a collaboration between the National Institute of Child Health & Human Development (NICHD) and NIH Chemical Genomics Center, a high-throughput, fluorescent screen was developed to screen the NIH Molecular Libraries Small Molecule Repository (MLSMR). This screen is used to identify inhibitors of pol iota.\nNIH Chemical Genomics Center [NCGC]\nNIH Molecular Libraries Probe Centers Network [MLPCN] […]\nThree microliters of reagents (buffer in column 3 and 4 as negative control and 10 nM Pol iota in columns 1, 2, and 5-48) will be dispensed into 1,536-well black solid-bottomed plate. […] The plates will then be incubated for 15 min at room temperature, and 1 µL substrate (50 nM final concentration) will be added to start the reaction and kinetically read twice at 0 min and 10 min on the Viewlux reader.", "values": [
      {"smiles": "COc1c(O)cc2c(c1OC)-c1ccc(OC)c(=O)cc1C(NC(C)=O)CC2", "note": "(stereo unspecified)", "activity, negative = inhibition": "inactive: 28.2%"}
    ]}
  ]
}
